From paper PMC7819943, “Rice protein-binding microarrays: a tool to detect cis-acting elements near promoter regions in rice” come the findings set out here.

Sequences of proteins named here, by UniProt entry; tags and fusion partners are left off.
UniProt Q0JBA9, entry or part of it: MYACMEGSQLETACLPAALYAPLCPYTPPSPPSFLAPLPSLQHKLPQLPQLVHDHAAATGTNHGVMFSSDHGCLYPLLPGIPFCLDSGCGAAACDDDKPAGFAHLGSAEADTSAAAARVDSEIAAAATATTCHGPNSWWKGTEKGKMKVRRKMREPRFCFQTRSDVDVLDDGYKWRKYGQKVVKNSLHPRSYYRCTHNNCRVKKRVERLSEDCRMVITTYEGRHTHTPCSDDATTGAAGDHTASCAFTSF

This is one part of the list.

The target in the experiment is OsWRKY34 (Oryza sativa, UniProt Q0JBA9 1-250). Put plainly: protein-binding microarray (RPBM); PBS, 2% BSA, 51.3 ng/ul salmon testes DNA, 50 uM zinc acetate, 200 nM TF, 25 C, 1 h; high values mean tight binding. The settings on record: protein: recombinant; tags: N-terminal polyhistidine and DsRed monomer fusion (pET32a); label: CyDye5-dUTP incorporated in the synthesized complementary strand; 3' TTTTT single-stranded linker to array surface; dsDNA, one strand shown. The gist of the method: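 Polyhistidine-tagged DsRed fusions of transcription factors, joined at the N-terminus, were expressed in E. coli BL21-CodonPlus and isolated on Ni–NTA. They were incubated at 200 nM for 1 h at 25 °C on a custom Agilent array, double-stranded and BSA-blocked, in PBS with 2% BSA, salmon testes DNA and 50 µM zinc acetate. The binding signal is per-feature fluorescence intensity (arbitrary units) read on an Axon 4000B scanner after washing.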
Consider “TGCTTTTCGGTCAGTTGTTTGGCTGCAATAACTGTAAACTCGGAGTCACCTAGTGCAG”, for which the binding signal is 10200 fluorescence intensity (a.u.). Take “GTTAAAGCTTCCTTATTTGTCGATTATACGGACGTTCTAACGGAGTCACCTAGTGCAG”: the binding signal was 8420 fluorescence intensity (a.u.).

On to “TTTCTTCCATACTGAAATGTGTATCTTAGCTACTGAAGCTCGGAGTCACCTAGTGCAG”, for which the binding signal is 8440 fluorescence intensity (a.u.).

Turning to “TGTATATGTATGCACTAATGTGTTTTTCTTGTAACCTAGTCGGAGTCACCTAGTGCAG”, the binding signal was 8900 fluorescence intensity (a.u.). With “GTCATCAACTTCTGCTACGACTTCCTCCGCCGCAACAGCCCGGAGTCACCTAGTGCAG”, the binding signal is 8990 fluorescence intensity (a.u.). As for “TATTTTGATTTTCTTTACCTTGTTTTTTAAACTGTACATTCGGAGTCACCTAGTGCAG”, the binding signal was 10900 fluorescence intensity (a.u.). Turning to “GTGCGTAGTTACATTTGGACTTCTCTGCGTTTTTTTTTTCCGGAGTCACCTAGTGCAG”, the binding signal was 9530 fluorescence intensity (a.u.). The same measure for “CAGTGTTGCCGCCGTCATCCTCCCAGCGCCCTATTCACCTCGGAGTCACCTAGTGCAG”: 9200 fluorescence intensity (a.u.); for “GCCTCTGCCAGCCGACGGCCGTTCGGCCCTCCGCGCACGCCGGAGTCACCTAGTGCAG”: 8320 fluorescence intensity (a.u.). With “TGACGTCATCAGATTTCGGCCCAGCCCATCACGCGCGCGTCGGAGTCACCTAGTGCAG”, the binding signal is 8800 fluorescence intensity (a.u.). For “ACTTTTTGTATTATGTATGAGCTGCATGTATTTTCAACCGCGGAGTCACCTAGTGCAG”, the binding signal is 8800 fluorescence intensity (a.u.). The same measure for “GGCGGCACCAAAATACCACCCGCCGCCCGCCCACCGTACCCGGAGTCACCTAGTGCAG”: 8930 fluorescence intensity (a.u.); for “ATCAATTTACTTTGCAATTTCACTATTTCGGGTGTTAAGACGGAGTCACCTAGTGCAG”: 8350 fluorescence intensity (a.u.); for “TGACTTTTTTAAATATGTTTGACCGTTCGTCTTATTGAAACGGAGTCACCTAGTGCAG”: 8190 fluorescence intensity (a.u.). Regarding “GGGTGCTTGTGTGGATGATGTGAAGATACTGGCGAAAGCCCGGAGTCACCTAGTGCAG”, the binding signal is 9720 fluorescence intensity (a.u.).

For the sequence “GGCTTATGTTATGTGTATGTACTTTGGTCGCATCGATCGGCGGAGTCACCTAGTGCAG”, the binding signal is 9120 fluorescence intensity (a.u.). For the sequence “CTTTATATCTGCAATTCTGCATCGTCTCCTCTGAAAGATTCGGAGTCACCTAGTGCAG”, the binding signal was 8480 fluorescence intensity (a.u.). For “TTGTGCTCTGACTTCTTCTTCACTCTGCAGCTCTGCTCGTCGGAGTCACCTAGTGCAG”, the binding signal was 8240 fluorescence intensity (a.u.). As to “TAGTTTCTATTTCCGTTTGTCGTGCTCCAGATTTATGAATCGGAGTCACCTAGTGCAG”, the binding signal was 8260 fluorescence intensity (a.u.).

For the sequence “TCGTTAAGTGTTGTGCTTGTTCTGAACTCCTTTTTAAGTACGGAGTCACCTAGTGCAG”, the binding signal was 9600 fluorescence intensity (a.u.). As for “TATTAGTACACTGCATGCGCTTAGTATGTTATTTATTTTCCGGAGTCACCTAGTGCAG”, the figure is 10300 fluorescence intensity (a.u.); as for “ATGCTCTTTCTTCAGACATCTCCACCCTTCCTATCTTGATCGGAGTCACCTAGTGCAG”, 12600 fluorescence intensity (a.u.). “TATATATATATATATATATATATATATATATATAGTAAATCGGAGTCACCTAGTGCAG”: the binding signal is 8280 fluorescence intensity (a.u.). Consider “CTTTTTCTCCACTGACATGTGAGGCCAACTTATTCCACGACGGAGTCACCTAGTGCAG”, for which the binding signal was 8820 fluorescence intensity (a.u.).

Regarding “GAATTATACATGGACATATCTGCCTTGAATTTGATTGCAACGGAGTCACCTAGTGCAG”, the binding signal was 8830 fluorescence intensity (a.u.). As for “GATCCACGTTTTTCAACATGAATTCCCTGAGCTGTATGCTCGGAGTCACCTAGTGCAG”, the binding signal was 9750 fluorescence intensity (a.u.).

Take “AGATCGATTGATGATATCTCTCGGTTATGACTTTTAGTAGCGGAGTCACCTAGTGCAG”: the binding signal is 9070 fluorescence intensity (a.u.).

Take “AACTTCACAGTCAAATTTGCCAGCCAGTACACACCCCACACGGAGTCACCTAGTGCAG”: the binding signal is 9840 fluorescence intensity (a.u.).

In the case of “GCATTTGGTCCAATCTCACATTCTTGACCATTTCGAGTACCGGAGTCACCTAGTGCAG”, the binding signal was 10000 fluorescence intensity (a.u.). Consider “GTGTTAGTTTGGATTTGTGTTTGTCCTTTTTCTTTTAGCTCGGAGTCACCTAGTGCAG”, for which the binding signal is 9040 fluorescence intensity (a.u.).

Regarding “ATCTTCCTTGTCTCTCTCAACAAACATATATCACGCTGCTCGGAGTCACCTAGTGCAG”, the binding signal is 9690 fluorescence intensity (a.u.). The same measure for “CGCTGCACTTGATCCGCCGCTGCGCCGCCTCTCGATTCGACGGAGTCACCTAGTGCAG”: 9410 fluorescence intensity (a.u.); for “GCACACCTCACTGGCACTGAGCGCACTTCACTAGGCGAGACGGAGTCACCTAGTGCAG”: 9100 fluorescence intensity (a.u.). For “CGTTTTTGCTTGAAGTTACTGTGGTAGATTGGGGTTTTGACGGAGTCACCTAGTGCAG”, the binding signal was 8900 fluorescence intensity (a.u.). In the case of “AGGGCAGCTGCTCTGTTTTCCTGCAGGTGTATATGCTGAACGGAGTCACCTAGTGCAG”, the binding signal is 8120 fluorescence intensity (a.u.). For the sequence “TCTCTGTCAGTTTTGATGTGGTTGTAATATTGGATTTGGCCGGAGTCACCTAGTGCAG”, the binding signal is 9520 fluorescence intensity (a.u.). For “CCCAGCTACATAACTGGGCTAATGCGATTCCAGCATCTTACGGAGTCACCTAGTGCAG”, the binding signal is 8660 fluorescence intensity (a.u.).

In the case of “AAATCTTAACCCTCTCGCCTCACTCCGTTCCGTTCCTGTGCGGAGTCACCTAGTGCAG”, the binding signal is 8020 fluorescence intensity (a.u.).

For “GGATGTTGTGTAAGGGTGTTAATTACTGATTGGTCATTAGCGGAGTCACCTAGTGCAG”, the binding signal was 8670 fluorescence intensity (a.u.). As for “GCCAACCTCCGTCCTAAAGGTGTGCCTTTTATATCTCTCCCGGAGTCACCTAGTGCAG”, the binding signal was 8880 fluorescence intensity (a.u.). With “CGATCCAATCGCCGTACCAAACATAGTCTTTTATTCTCCACGGAGTCACCTAGTGCAG”, the binding signal is 9500 fluorescence intensity (a.u.). As for “AGGCGCCACGACGGAACGGGCGCTACATCTTATCTCTTCTCGGAGTCACCTAGTGCAG”, the binding signal is 8680 fluorescence intensity (a.u.).

“TGGTTTTCTGTTTTCTTGGTTTTGGGTGGTGGCAGTTGACCGGAGTCACCTAGTGCAG”: the binding signal was 23200 fluorescence intensity (a.u.).

“CCATTTCCAGCAAGTCCACGGCTTTACGGCTGCTTGCTTTCGGAGTCACCTAGTGCAG”: the binding signal is 8160 fluorescence intensity (a.u.).

In the case of “AATCAGCCTCACACATTCTTGTGTTCGTAATTTACATGTTCGGAGTCACCTAGTGCAG”, the binding signal is 8610 fluorescence intensity (a.u.).

Consider “TTTACCAAACCGTTTGAGATGGCCCTACTGTTACAATCGCCGGAGTCACCTAGTGCAG”, for which the binding signal was 8200 fluorescence intensity (a.u.). “CACTACCAACGTCCACCGGCACCGCAACTTGCTGTCCTCTCGGAGTCACCTAGTGCAG”: the binding signal was 11000 fluorescence intensity (a.u.). As to “ATGTGCTCGTGCTTGACTAATTCCGGTATACCACGTACTCCGGAGTCACCTAGTGCAG”, the binding signal is 8050 fluorescence intensity (a.u.). Turning to “TTTATATACTGGAGTTGCGGATTTCCCTATCATGCAAGTTCGGAGTCACCTAGTGCAG”, the binding signal is 8250 fluorescence intensity (a.u.). For the sequence “AGGTTTGTGTGTGATTAGGGCTAGGTGGTGGGCAAAGGATCGGAGTCACCTAGTGCAG”, the binding signal was 12700 fluorescence intensity (a.u.). “GTTTGAATTCACTTCAAATTCGGTTCATATTTGATACTTCCGGAGTCACCTAGTGCAG”: the binding signal was 8040 fluorescence intensity (a.u.). “CTGATGATCCATTATCCCATCCCTCTCATTATTTATTTCCCGGAGTCACCTAGTGCAG”: the binding signal was 8090 fluorescence intensity (a.u.). As for “GTGTTGACTGTAATTAATGTCTTTTTTTTATAGATGATGACGGAGTCACCTAGTGCAG”, the binding signal is 8140 fluorescence intensity (a.u.).

In the case of “AGCTCGTTTTTCCCAACATGGCCACGTCACTGCCGGCCAGCGGAGTCACCTAGTGCAG”, the binding signal was 8070 fluorescence intensity (a.u.).
